{
  "sequences": {"note": "Chains of the proteins cited; added tags and fusions are not shown. Lines headed by an entry give the natural chain unless they say otherwise; changes in a name come on top. A line that says so, or that is headed by a name, gives the form on record, which may keep a tag or linker.", "KDR receptor expressed on the endothelium of neovessels of rabbit VX2 tumors (G1SN50, form named)": "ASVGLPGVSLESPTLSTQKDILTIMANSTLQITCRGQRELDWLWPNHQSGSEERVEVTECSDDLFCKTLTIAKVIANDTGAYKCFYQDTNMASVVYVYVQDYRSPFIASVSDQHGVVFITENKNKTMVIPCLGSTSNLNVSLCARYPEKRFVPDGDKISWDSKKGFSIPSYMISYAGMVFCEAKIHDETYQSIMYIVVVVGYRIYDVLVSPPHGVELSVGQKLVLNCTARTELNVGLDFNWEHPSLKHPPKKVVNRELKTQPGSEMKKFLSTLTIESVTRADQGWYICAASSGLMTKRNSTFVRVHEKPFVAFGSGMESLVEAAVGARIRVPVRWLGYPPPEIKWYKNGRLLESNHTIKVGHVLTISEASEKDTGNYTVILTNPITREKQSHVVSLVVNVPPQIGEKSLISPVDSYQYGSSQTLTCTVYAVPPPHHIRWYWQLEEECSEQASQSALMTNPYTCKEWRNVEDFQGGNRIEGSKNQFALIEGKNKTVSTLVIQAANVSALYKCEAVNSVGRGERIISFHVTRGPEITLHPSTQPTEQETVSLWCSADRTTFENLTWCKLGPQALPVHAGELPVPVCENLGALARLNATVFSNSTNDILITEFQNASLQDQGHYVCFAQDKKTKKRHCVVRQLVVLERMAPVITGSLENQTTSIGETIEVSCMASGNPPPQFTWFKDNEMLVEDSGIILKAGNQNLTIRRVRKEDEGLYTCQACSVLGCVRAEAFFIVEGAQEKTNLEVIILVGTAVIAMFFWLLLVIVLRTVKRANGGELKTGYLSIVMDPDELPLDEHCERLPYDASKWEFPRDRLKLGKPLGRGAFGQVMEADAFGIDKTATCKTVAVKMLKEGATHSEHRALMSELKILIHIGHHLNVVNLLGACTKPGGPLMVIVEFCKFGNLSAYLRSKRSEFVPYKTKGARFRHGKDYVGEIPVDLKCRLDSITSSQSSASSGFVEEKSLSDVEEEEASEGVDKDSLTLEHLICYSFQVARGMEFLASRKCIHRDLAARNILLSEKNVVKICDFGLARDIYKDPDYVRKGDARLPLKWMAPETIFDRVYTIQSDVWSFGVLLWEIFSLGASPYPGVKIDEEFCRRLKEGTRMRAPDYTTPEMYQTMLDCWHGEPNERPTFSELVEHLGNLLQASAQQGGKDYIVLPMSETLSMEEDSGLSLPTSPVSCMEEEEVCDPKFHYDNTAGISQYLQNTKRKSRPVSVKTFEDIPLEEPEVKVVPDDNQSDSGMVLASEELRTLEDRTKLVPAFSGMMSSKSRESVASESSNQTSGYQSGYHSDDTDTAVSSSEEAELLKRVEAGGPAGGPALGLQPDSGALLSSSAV"},
  "source": "patent EP2359864B1",
  "about": "“Targeting Vector-Phospholipid Conjugates” (Bracco Suisse SA, priority 2005, dated 2019)",
  "molecular_target": "KDR receptor expressed on the endothelium of neovessels of rabbit VX2 tumors (rabbit) (UniProt G1SN50)",
  "assay": "in vivo ultrasound imaging of rabbit VX2 tumors 25 min after injection of targeted microbubbles, free circulating bubbles subtracted",
  "note": "These are yes or no findings as the source states them, for the method shown. Some binding calls cover weakened binding; strength is not graded here.",
  "data": [
    {"binder": "RAQDWYYDEILSMADQLRHAFLSGGGGGK (N-terminal acetyl; C-terminal Lys N6-(DSPE-PEG2000-NH-Glut); C-terminal amide)", "note": "[monomeric peptide phospholipid conjugate (1)]", "values": [
      {"measurement": "binding", "result": "binds"}
    ]}
  ]
}
